{
  "source": "PubChem BioAssay AID540276",
  "about": "(National Center for Advancing Translational Sciences (NCATS), 2011)",
  "note": "About 5,400 (1.8%) of roughly 300,000 compounds were called active. Inconclusive results, whose numbers are uncertain, are shown with a selection of clear calls. The call rests on the fitted dose curve; tested in HEK293 cells. Potencies of inconclusive entries are doubtful fits and often do not repeat. On the % scale 0 is the no-effect control and ±100 the full control effect; potency means the concentration at half of the fitted maximal effect.",
  "data": [
    {"experiment": "qHTS for inhibitors of binding or entry into cells for Marburg Virus", "conditions": "Marburg virus pseudotyped entry inhibition, cell reporter; activity change, negative = inhibition: at 37.8 µM (top of the series) unless noted", "values": [
      {"smiles": "O=C(CN(C(=O)CCC(=O)Nc1ccccn1)c1cccc(F)c1)NCc1ccc(F)cc1", "Potency": "inconclusive: 20 µM [inhibitor, single point]"},
      {"smiles": "O=C(c1ccc(Cl)c(S(=O)(=O)N2CCCCCC2)c1)N1CCCC(C(F)(F)F)C1", "note": "(configuration not stated)", "Potency": "inconclusive: 11.2 µM [inhibitor, partial curve, poor fit]"},
      {"smiles": "O=C(COc1ccc(C(=S)N2CCOCC2)cc1)N1CCOCC1", "Potency": "inconclusive: 8.91 µM [activator, partial curve, poor fit]"},
      {"smiles": "CCCc1nnc(NC(=O)Cn2c(=O)sc3ccccc32)s1", "activity change, negative = inhibition": "inactive: -0.199%"},
      {"smiles": "COc1ccc(CCNC(=O)c2nn(-c3ccc(C)cc3)c(=O)c3c2c2ccccc2n3C)cc1OC", "Potency": "inconclusive: 3.98 µM [inhibitor, full curve, poor fit]"},
      {"smiles": "CN(C)S(=O)(=O)c1ccc(S(=O)(=O)N(Cc2ccco2)Cc2ccccc2Cl)cc1", "Potency": "inconclusive: 3.66 µM [inhibitor, partial curve, poor fit]"},
      {"smiles": "CSc1ccc(CN2CCC(n3nccc3NC(=O)CCCc3ccccc3)CC2)cc1", "Potency": "inconclusive: 35.5 µM [inhibitor, single point]"},
      {"smiles": "O=C(CC1N=C2c3ccccc3N=C(SCC(=O)Nc3cccc(C(F)(F)F)c3)N2C1=O)NCc1cccs1", "note": "(configuration not stated)", "Potency": "inconclusive: 5.62 µM [inhibitor, single point]"},
      {"smiles": "COc1ccccc1C(=O)OCc1ccc2sc(C)nc2c1", "activity change, negative = inhibition": "inactive: 23.8% [at 46.1 µM]"},
      {"smiles": "Cc1ncc(CSCC(=O)Nc2cc(C(F)(F)F)ccc2Cl)c(CO)c1O", "activity change, negative = inhibition": "inactive: -1.92% [at 46.1 µM]"},
      {"smiles": "O=C(CCn1c2c(c3ccccc31)CCCC2)NNC(=O)c1ccccc1[N+](=O)[O-]", "Potency": "inconclusive: 6.31 µM [inhibitor, single point]"},
      {"smiles": "CC1CCN(S(=O)(=O)c2ccc(C(=O)N(C)C3CCS(=O)(=O)C3)cc2)CC1", "note": "(configuration not stated)", "activity change, negative = inhibition": "inactive: -7.4%"},
      {"smiles": "Cc1cc(C)c(CN2CCC(n3nccc3NC(=O)c3ccccc3Cl)CC2)cc1C", "Potency": "inconclusive: 35.5 µM [inhibitor, single point]"},
      {"smiles": "COC(=O)c1cn(NC(=O)c2cc(OC)cc(OC)c2)c(=O)c2ccccc12", "Potency": "inconclusive: 2.06 µM [inhibitor, partial curve, poor fit]"},
      {"smiles": "Cc1ccnc(Sc2ncccc2[N+](=O)[O-])n1", "activity change, negative = inhibition": "inactive: 7.17% [at 46.1 µM]"},
      {"smiles": "Cn1nc([N+](=O)[O-])c(C(C#N)c2nc3ccccc3n2C)c(Cl)c1=O", "note": "(configuration not stated)", "activity change, negative = inhibition": "inactive: 0.204%"},
      {"smiles": "Fc1ccc(OCCOCCNCC2CCCO2)cc1", "note": "(configuration not stated)", "Potency": "inconclusive: 11.2 µM [inhibitor, single point]"},
      {"smiles": "COc1ccc2c(C)cc(SCn3nnc4ccccc4c3=O)nc2c1", "activity change, negative = inhibition": "inactive: -2.23%"},
      {"smiles": "CCC(C)N(C(=O)COC(=O)/C=C/c1ccc(O)c(OC)c1)C1CCS(=O)(=O)C1", "note": "(configuration not stated)", "Potency": "inconclusive: 20 µM [inhibitor, single point]"},
      {"smiles": "CCN(CC)c1ccc(CNCCc2ccccc2F)cc1", "Potency": "inconclusive: 31.6 µM [inhibitor, single point]"},
      {"smiles": "Cc1cc(C)c(C#N)c(SCc2nc3ccccc3c(=O)[nH]2)n1", "Potency": "active: 1.12 µM"},
      {"smiles": "CCS(=O)(=O)Nc1cccc(-c2cc(-c3ccccc3)c3cc(C)ccc3n2)c1", "Potency": "inconclusive: 17.8 µM [inhibitor, partial curve, poor fit]"},
      {"smiles": "Oc1c(I)cc(I)c2cccnc12", "activity change, negative = inhibition": "inactive: 3.38%"},
      {"smiles": "Cc1ccc(-c2nnn(CC(=O)N(c3ccc(F)cc3)C(C(=O)NC3CCCC3)c3ccco3)n2)o1", "note": "(configuration not stated)", "Potency": "inconclusive: 2.91 µM [inhibitor, partial curve, poor fit]"},
      {"smiles": "COc1ccccc1-n1cnnc1SCC(=O)Nc1cc(C(C)(C)C)nn1-c1ccccc1", "activity change, negative = inhibition": "inactive: -20.8%"},
      {"smiles": "COc1ccccc1NC(=O)CCCOc1cc(=O)n(C)c2ccccc12", "activity change, negative = inhibition": "inactive: -0.0905% [at 46.1 µM]"},
      {"smiles": "COC(=O)c1ccc(OCC(O)Cn2nnc3ccccc32)cc1", "note": "(configuration not stated)", "activity change, negative = inhibition": "inactive: 3.39%"},
      {"smiles": "CCN1CCN(CCCN(Cc2ccco2)C(=S)Nc2cc(Cl)ccc2C)CC1", "activity change, negative = inhibition": "inactive: -2.63% [at 46.1 µM]"},
      {"smiles": "O=c1[nH]c(=O)n(Cc2ccccc2)c2c1C(C(F)(F)F)(C(F)(F)F)N=C(c1ccco1)N2", "activity change, negative = inhibition": "inactive: -6.35%"},
      {"smiles": "CCOC(=O)N1CCN(C(=O)c2cc3cc(F)ccc3[nH]2)CC1", "Potency": "inconclusive: 0.447 µM [activator, partial curve, poor fit]"},
      {"smiles": "O=C1N(Cc2cccc(Cl)c2)C[C@@H]2C[C@@H](c3cccc4cccnc34)N3CCC[C@@]123", "Potency": "inconclusive: 35.5 µM [inhibitor, single point]"},
      {"smiles": "O=C(CCNS(=O)(=O)c1cccc2nonc12)N1CCN(c2cccc(Cl)c2)CC1", "Potency": "inconclusive: 31.6 µM [inhibitor, single point]"},
      {"smiles": "CC(=O)Nc1nc(C)c(Oc2ccc(Cl)cc2)c(=O)[nH]1", "Potency": "inconclusive: 5.62 µM [activator, single point]"},
      {"smiles": "COc1ccc(C(C)=O)cc1CC(C(=O)c1ccc(C)cc1)N(C)C", "note": "(configuration not stated)", "activity change, negative = inhibition": "inactive: 7.96%"},
      {"smiles": "C=CCN=c1scc(-c2ccco2)n1/N=C/c1ccc(O)c(O)c1O", "activity change, negative = inhibition": "inactive: 5.7% [at 46.1 µM]"},
      {"smiles": "Cc1nn(C)c(C)c1CN(C)C(=O)CCCC(=O)O", "Potency": "inconclusive: 1.26 µM [activator, single point]"},
      {"smiles": "COC(=O)c1sc(-c2ccccc2)cc1NC(=O)c1cccc(F)c1", "activity change, negative = inhibition": "inactive: -29.6% [at 46.1 µM]"},
      {"smiles": "O=C(Nc1ccc(Nc2ccccc2)cc1)c1ccccc1F", "Potency": "inconclusive: 35.5 µM [inhibitor, single point]"},
      {"smiles": "COc1cc(C)ccc1OCCOc1c(Cl)cc(Cl)cc1Cl", "Potency": "inconclusive: 12.6 µM [inhibitor, single point]"},
      {"smiles": "O=C(CSc1ccc(Cl)cc1)NCC1CCCO1", "note": "(configuration not stated)", "activity change, negative = inhibition": "inactive: 15%"},
      {"smiles": "Cc1ccc(NC(=O)c2ccc(N/N=C/c3cccc(O)c3)c([N+](=O)[O-])c2)cc1", "Potency": "inconclusive: 35.5 µM [inhibitor, single point]"},
      {"smiles": "O=C(/C=C\\Nc1ccc2c(c1)OCO2)c1ccc(Cl)s1", "Potency": "inconclusive: 3.16 µM [inhibitor, full curve, poor fit]"},
      {"smiles": "O=C(NCc1ccc2c(c1)OCO2)c1ccc(N2CCCCCC2)c([N+](=O)[O-])c1", "Potency": "inconclusive: 35.5 µM [inhibitor, partial curve, poor fit]"},
      {"smiles": "COc1cccc(NC(=O)Cn2cc(C=O)c3ccccc32)c1", "Potency": "inconclusive: 7.08 µM [inhibitor, partial curve, poor fit]"},
      {"smiles": "Cc1cccc(OCC(=O)NCCNC(=O)c2ccco2)c1", "activity change, negative = inhibition": "inactive: 27.2% [at 46.1 µM]"},
      {"smiles": "COC(=O)CCC(=O)Nc1c(C)n(C)n(-c2ccccc2)c1=O", "Potency": "inconclusive: 35.5 µM [activator, single point]"},
      {"smiles": "COC(=O)c1ccc(NC(=O)C2(S(=O)(=O)c3ccc(C)cc3)CC2)cc1", "activity change, negative = inhibition": "inconclusive: 7.11% [activator] [at 46.1 µM]"},
      {"smiles": "Cc1cc(C(=O)N2CCCC(N3CCN(c4ccccc4C)CC3)C2)n(C)n1", "note": "(configuration not stated)", "Potency": "inconclusive: 14.1 µM [inhibitor, single point]"},
      {"smiles": "CCc1c(C#N)c(SCCC(=O)Nc2ccc(OC)cc2)nc2c1C(=O)CC(C)(C)C2", "Potency": "inconclusive: 11.2 µM [inhibitor, partial curve, poor fit]"},
      {"smiles": "O=C(Nc1ccc(S(=O)(=O)Nc2nccs2)cc1)c1ccc(S(=O)(=O)N2CCOCC2)cc1", "activity change, negative = inhibition": "inactive: 30.1%"},
      {"smiles": "Cc1cc(C)c(C)c(S(=O)(=O)Nc2ccc(O)cc2)c1C", "Potency": "inconclusive: 3.98 µM [activator, single point]"},
      {"smiles": "CCOc1ccc(CN2CCN(C(=O)c3cccc(F)c3)CC2)cc1", "Potency": "inconclusive: 23.1 µM [inhibitor, partial curve, poor fit]"},
      {"smiles": "CC(=O)N1c2cc3ccccc3cc2N(C(C)=O)c2cc3ccccc3cc21", "Potency": "inconclusive: 35.5 µM [inhibitor, single point]"},
      {"smiles": "CCCNc1ncnc2c1cnn2-c1ccc(OC)cc1", "activity change, negative = inhibition": "inactive: 5.53%"},
      {"smiles": "COc1ccc(CCC(=O)N2CCN(c3ccc([N+](=O)[O-])cc3)CC2)cc1OC", "Potency": "inconclusive: 25.1 µM [inhibitor, single point]"},
      {"smiles": "CCOC(=O)N1CCC(N2CCCC(C(=O)c3cc(F)ccc3OC)C2)CC1", "note": "(configuration not stated)", "Potency": "inconclusive: 35.5 µM [inhibitor, single point]"},
      {"smiles": "Cc1cc(C(=O)N/N=C/c2ccc(O)c([N+](=O)[O-])c2)c(C)n1-c1ccc(F)cc1", "Potency": "inconclusive: 3.55 µM [activator, single point]"},
      {"smiles": "CCC(C)(C)n1nnnc1C(C(C)C)N(Cc1cccnc1)Cc1ccco1", "note": "(configuration not stated)", "Potency": "inconclusive: 14.1 µM [inhibitor, partial curve, poor fit]"},
      {"smiles": "Cn1cc([N+](=O)[O-])c(C(=O)Nc2nc(-c3ccc(Cl)cc3)cs2)n1", "Potency": "inconclusive: 0.891 µM [activator, single point]"},
      {"smiles": "CCCOc1ccc(N2C(=O)CC(N(Cc3ccc(OC)cc3)C(=S)Nc3ccccc3)C2=O)cc1", "note": "(configuration not stated)", "Potency": "inconclusive: 35.5 µM [inhibitor, partial curve, poor fit]"},
      {"smiles": "N#C/C(=C\\c1ccc[nH]1)C(=O)Nc1ccccc1F", "Potency": "inconclusive: 5.62 µM [activator, single point]"},
      {"smiles": "CC1(C)Cc2c(c(N3CCCC3)nc3sc4c(N5CCN(CCO)CC5)ncnc4c23)CO1", "Potency": "inconclusive: 29.1 µM [inhibitor, single point]"},
      {"smiles": "CCOc1cccc(C2C(C(=O)c3ccco3)=C(O)C(=O)N2Cc2ccncc2)c1", "note": "(configuration not stated)", "activity change, negative = inhibition": "inactive: -9.01%"},
      {"smiles": "Cc1cccc(NC(=O)c2cc(S(=O)(=O)N(C)c3ccc(F)cc3)ccc2Cl)n1", "activity change, negative = inhibition": "inactive: -13.3%"},
      {"smiles": "COc1ccc2nc3c(cc2c1)c(NC(=O)c1cccs1)nn3CC(C)C", "Potency": "inconclusive: 11.2 µM [inhibitor, single point]"},
      {"smiles": "Cc1nc(N/N=C/c2ccc(Br)cc2)cc(N2CCOCC2)n1", "Potency": "inconclusive: 12.6 µM [inhibitor, partial curve, poor fit]"},
      {"smiles": "CCC(C)(C)n1nnnc1C(c1cccnc1)N1CCC(Cc2ccccc2)CC1", "note": "(configuration not stated)", "Potency": "inconclusive: 22.4 µM [inhibitor, single point]"}
    ]}
  ]
}
